# Values from PubChem BioAssay AID504774 (Drosophila RNAi Screening Center, 2011)
# Assay: 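Knock-downs that shift viability of MMS-exposed cells relative to untreated ones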 (primary screen)
# Cell system: Drosophila Kc167 cells
# Reagents: long dsRNA against Drosophila genes, about 0.25 µg dsRNA per well
# Timing: about 6 days: 3 days knock-down, then 3 days with or without MMS
# Treatment: methyl methanesulphonate 0.004% (w/v) for 3 days after knock-down
# Measured: 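Viability in wells given MMS, read as ATP luminescence, normalised by quantiles plate by plate and averaged across replicates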
# Scale: mean viability with MMS: higher = more surviving cells after MMS
# In all, the deposit lists about 23,000 reagents; this is an unselected part of those that have a named target and a result. 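Values are quantile-normalised luminescence on an arbitrary scale; higher means more cells surviving MMS.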 A plus sign joins genes that one reagent is predicted to hit. Not all columns of the deposit are shown.
gene,DRSC id,mean viability with MMS
CG10918,DRSC20472,3.48e6
Jhbp6,DRSC11714,3.37e6
alph,DRSC15398,3.61e6
CG45002,DRSC20144,3.56e6
Sdb,DRSC06272,3.46e6
Sdb,DRSC06273,3.45e6
Sdb,DRSC07155,3.65e6
c(2)M,DRSC01922,3.71e6
Cubn,DRSC18256,3.52e6
uif,DRSC00963,3.34e6
uif,DRSC03427,3.64e6
bic,DRSC07584,3.51e6
Tapdelta,DRSC05946,3.65e6
mthl5,DRSC16155,3.41e6
CG42818 + Ca-Ma2d,DRSC01963,3.55e6
Pi3K21B,DRSC00771,3.45e6
mthl8,DRSC08211,3.66e6
mthl8,DRSC08311,3.61e6
CG34011,DRSC00888,3.45e6
CG4318,DRSC19887,3.45e6
Vsx2,DRSC17397,3.76e6
Vsx2,DRSC18087,3.29e6
Vsx2,DRSC18088,3.64e6
Vsx2,DRSC18089,3.64e6
Vsx2,DRSC23089,3.51e6
Vsx2,DRSC23273,3.61e6
Vps4,DRSC19338,3.39e6
Arts + Apl,DRSC10349,3.60e6
tamo,DRSC04446,3.59e6
TH1,DRSC20289,3.49e6
PAPLA1,DRSC03095,3.67e6
PAPLA1,DRSC03096,3.64e6
CG11698,DRSC14355,1.84e6
Akt,DRSC14108,3.64e6
CG10853,DRSC08164,3.60e6
eIF4E6,DRSC14853,3.41e6
twin,DRSC15259,3.82e6
twin,DRSC15831,3.75e6
twin,DRSC21363,3.85e6
CAH5,DRSC15372,3.24e6
RN-tre,DRSC07521,3.67e6
CG32271,DRSC08198,3.52e6
pnr,DRSC17027,3.74e6
Droj2,DRSC16450,2.98e6
Burs,DRSC14595,3.54e6
CG12224,DRSC14480,3.43e6
CG32733 (retired record) + CG32797,DRSC17705,3.47e6
Ggamma30A,DRSC02715,3.51e6
Ggamma30A,DRSC03331,3.63e6
Ing3,DRSC20002,3.51e6
x16,DRSC00960,3.31e6
x16,DRSC03638,3.61e6
CG3592,DRSC18315,3.59e6
RanBPM,DRSC06079,3.43e6
CG4607,DRSC18375,3.62e6
CG4576,DRSC15604,3.50e6
CG13408,DRSC13534,3.56e6
CG13408,DRSC14584,3.49e6
mats,DRSC13562,4.33e6
mats,DRSC14702,3.53e6
sxe2,DRSC15692,3.72e6
scramb1,DRSC09724,3.56e6
scramb1,DRSC10667,3.67e6
scramb1,DRSC10668,3.45e6
CG34022 (retired record),DRSC07949,3.64e6
CG15471,DRSC18054,3.65e6
Alp5,DRSC14269,3.61e6
CG4119,DRSC17741,3.34e6

Sorted by “mean viability with MMS” (ascending): some entries from above
gene,DRSC id,mean viability with MMS
CG11698,DRSC14355,1.84e6
Vps4,DRSC19338,3.39e6
TH1,DRSC20289,3.49e6
tamo,DRSC04446,3.59e6
Arts + Apl,DRSC10349,3.60e6
CG10853,DRSC08164,3.60e6
PAPLA1,DRSC03096,3.64e6
Akt,DRSC14108,3.64e6
PAPLA1,DRSC03095,3.67e6
